Data as given in patent US20110190245A1, “NANOSUSPENSION WITH ANTIFUNGAL MEDICATION TO BE ADMINISTERED VIA INHALATION WITH IMPROVED IMPURITY PROFILE AND SAFETY” (priority 2008, published 2011).
For at least one compound, name, drawing or mass did not settle the structure.

Tested on: A. fumigatus H11-20
Assay: Therapeutic effect of inhaled itraconazole in immune-compromised animals infected via the trachea with A. fumigatus (survival)
Format: in vivo, Aspergillus fumigatus
Details: oral 10 mg/kg twice daily, started the day before inoculation

CCC(C)n1ncn(-c2ccc(N3CCN(c4ccc(OCC5COC(Cn6cncn6)(c6ccc(Cl)cc6Cl)O5)cc4)CC3)cc2)c1=O (stereo not shown) [itraconazole]
animals that had died by day 9: 10 out of 12
